Assay results from patent US20260231590A1, “AROMATIC COMPOUND, ORGANIC SEMICONDUCTOR LAYER AND ORGANIC THIN FILM TRANSISTOR” (TOSOH CORPORATION, priority 2023, published 2026).

Assay: Transmission characteristics of bottom gate-bottom contact p-type organic thin film transistor (drop casting)
Conditions: drop casting from 0.20% by weight toluene solution, materials and methods of Example 25
Description: The evaluation of the transmission characteristics of the aromatic compounds was performed using a semiconductor parameter analyzer.
• Instrument; Manufactured by Keithley Instruments, Inc., model; 4200A-SCS • Drain voltage; −20 V • Gate voltage; 10 V to −20 V.
Using the resulting solution for forming an organic semiconductor layer, a bottom gate-bottom contact p-type organic thin film transistor was fabricated.

Row | Structure (SMILES) | thin film formation for transistor fabrication
1 | CCCCCCCCc1cc2ccc3cc4c(ccc5cc(CCCCCCCC)sc54)cc3c2s1 [2,8-dioctylanthra[1,2-b:5,6-b′]dithiophene, reference compound] | No thin film

Same assay, conditions: drop-cast film from 0.20% by weight toluene solution; drain voltage −20 V, gate voltage 10 V to −20 V

Row | Structure (SMILES) | hole carrier mobility
2 | CCCCCCc1cc2ccc3cc4c(ccc5cc(CCCC6CCCCC6)sc54)cc3c2s1 [Compound 18, 2-(3-Cyclohexylpropyl)-8-hexylanthra[1,2-b:5,6-b′]dithiophene] | 0.48 cm^2/V·sec
3 | c1cc2cc(CCC3CCCCC3)sc2c2c1-c1c-2ccc2cc(CCC3CCCCC3)sc12 [Compound 20, 2,7-Bis(2-cyclohexylethyl)biphenyleno[1,2-b:5,6-b′]dithiophene] | 0.22 cm^2/V·sec
4 | CCCCCCc1cc2ccc3cc4c(ccc5cc(CCC6CCCC6)sc54)cc3c2s1 [Compound 13, 2-(2-Cyclopentylethyl)-8-hexylanthra[1,2-b:5,6-b′]dithiophene] | 1.17 cm^2/V·sec
5 | CCCCCCc1cc2ccc3cc4c(ccc5cc(CCCC6CCCC6)sc54)cc3c2s1 [Compound 31, 2-(3-Cyclopentylpropyl)-8-hexylanthra[1,2-b:5,6-b′]dithiophene] | 0.49 cm^2/V·sec
6 | CCCCCCCCc1ccc(CCc2cc3ccc4cc5c(ccc6cc(CCC7CCCCC7)sc65)cc4c3s2)cc1 [Compound 40, 2-(2-Cyclohexylethyl)-8-(4-octylphenylethyl)anthra[1,2-b:5,6-b′]dithiophene] | 0.66 cm^2/V·sec
7 | CCCCCc1cc2ccc3cc4c(ccc5cc(CCCC6CCCCC6)sc54)cc3c2s1 [Compound 25, 2-(3-Cyclohexylpropyl)-8-pentylanthra[1,2-b:5,6-b′]dithiophene] | 1.18 cm^2/V·sec
8 | c1cc2cc(CCC3CCCCC3)sc2c2cc3ccc4cc(CCC5CCCCC5)sc4c3cc12 [Compound 2, 2,8-Di(2-cyclohexylethyl)anthra[1,2-b:5,6-b′]dithiophene] | 1.46 cm^2/V·sec
9 | CCCCCCc1cc2ccc3cc4c(ccc5cc(CCC6CCCCC6)sc54)cc3c2s1 [Compound 8, 2-(2-Cyclohexylethyl)-8-hexylanthra[1,2-b:5,6-b′]dithiophene] | 1.67 cm^2/V·sec
10 | c1cc2cc(CCC3CCCC3)sc2c2cc3ccc4cc(CCC5CCCC5)sc4c3cc12 [Compound 10, 2,8-Di(2-cyclopentylethyl)anthra[1,2-b:5,6-b′]dithiophene] | 3.33 cm^2/V·sec
11 | CC(C)Cc1cc2ccc3cc4c(ccc5cc(CCC6CCCC6)sc54)cc3c2s1 [Compound 12, 2-(2-Cyclopentylethyl)-8-isobutylanthra[1,2-b:5,6-b′]dithiophene] | 0.22 cm^2/V·sec
12 | c1cc2cc(CCC3CCCCC3)sc2c2cc3ccc4cc(CCC5CCCC5)sc4c3cc12 [Compound 14, 2-(2-Cyclohexylethyl)-8-(2-cyclopentylethyl)anthra[1,2-b:5,6-b′]dithiophene] | 0.20 cm^2/V·sec
